In PMC5764453:
Results are given in words; binding and its absence hold for the method and conditions named. Binding seen in cells or lysates may run through a third protein. Binding calls can cover weak binding; strength is not graded here.

Molecular target: T1, prohibitin (PHB), murine (mouse (endogenous in NSC-34)) (UniProt P67778)
T1 sequence: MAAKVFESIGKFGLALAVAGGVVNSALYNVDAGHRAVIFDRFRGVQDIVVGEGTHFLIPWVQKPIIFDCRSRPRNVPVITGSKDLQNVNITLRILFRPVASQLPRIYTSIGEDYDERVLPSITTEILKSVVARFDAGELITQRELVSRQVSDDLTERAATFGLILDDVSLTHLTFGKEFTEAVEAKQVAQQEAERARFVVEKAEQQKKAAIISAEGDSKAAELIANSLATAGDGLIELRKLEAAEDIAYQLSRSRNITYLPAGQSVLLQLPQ
Experiment: co-IP; lysate of EV71-infected NSC-34 cells (M.O.I. 10, 48 h.p.i.); anti-PHB antibody or IgG isotype on Dynabeads Protein G, 3 hours at 4°C; blot with anti-EV71 3D/3CD

EV71 3D polymerase (enzyme)
binding: binds
